No constants are given. Whether binding was seen depends on the method and setting. In cells and extracts the contact can be indirect. A result given as binding can be weak or reduced; the word gives no strength. Sequences can lack the tags named with a protein.

The target in the test is HA-P85 (p85 regulatory subunit of PI3K). The test can be described thus: co-IP; PLC/PRF/5 cells transfected with Flag-PIP4K2A-L, Flag-PIP4K2A-S and HA-P85; IP with anti-HA or anti-Flag, IgG as control; RIPA lysate, magnetic beads, overnight at 4 °C.

B1: Flag-PIP4K2A-L (PIP4K2A isoform including exon 5) (enzyme, UniProt P48426 1-406)
chain: MATPGNLGSSVLASKTKTKKKHFVAQKVKLFRASDPLLSVLMWGVNHSINELSHVQIPVMLMPDDFKAYSKIKVDNHLFNKENMPSHFKFKEYCPMVFRNLRERFGIDDQDFQNSLTRSAPLPNDSQARSGARFHTSYDKRYIIKTITSEDVAEMHNILKKYHQYIVECHGITLLPQFLGMYRLNVDGVEIYVIVTRNVFSHRLSVYRKYDLKGSTVAREASDKEKAKELPTLKDNDFINEGQKIYIDDNNKKVFLEKLKKDVEFLAQLKLMDYSLLVGIHDVERAEQEEVECEENDGEEEGESDGTHPVGTPPDSPGNTLNSSPPLAPGEFDPNIDVYGIKCHENSPRKEVYFMAIIDILTHYDAKKKAAHAAKTVKHGAGAEISTVNPEQYSKRFLDFIGHILT
As for B1, the binding entry was “binds”.

(Values after article PMC10837360.)
